From PubChem BioAssay record AID504749 (NCATS, 2011).

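A panel of P. falciparum strains inside erythrocytes is exposed to compounds for three days, then a DNA-binding dye reports the amount of parasite DNA.
Each compound was titrated across a series from about 0.000037 to 29 µM.
The number is the fitted AC50, the concentration giving a half-maximal change in signal; a lower value means higher potency, whether the curve shows a decrease or an increase.
Calls follow the curve class and fit quality: every row here is inconclusive, covering signal-raising curves and weak, poorly fitted, partial or highest-dose-only inhibition curves.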

Values are in µM.
All entries here are filed as inconclusive.
Only part of the assay is shown, chiefly results filed as inconclusive.
A potency from a partial, single-point or poor curve is only a rough figure.
Some entries filed as inconclusive have a full curve.
The first word of each remark tells which way the curve ran; it can be opposite to the aim of the assay.

Compound,tested on / at,fitted potency (µM),remark
C[C@H](N)C(=O)N[C@@H](C)P(=O)(O)O,TAB109,3.981,"inhibitor, single point"
C[C@H](N)C(=O)N[C@@H](C)P(=O)(O)O,CP260,17.78,"inhibitor, single point"
C[C@H](N)C(=O)N[C@@H](C)P(=O)(O)O,CP215,4.776,"inhibitor, partial curve, poor fit"
CC(N)C(=O)OC(C)(C)Cc1ccc(Cl)cc1 (stereo not drawn),CP265,7.943,"inhibitor, partial curve"
CC(N)C(=O)OC(C)(C)Cc1ccc(Cl)cc1 (stereo not drawn),CP269,15.1,"inhibitor, partial curve, poor fit"
CC(N)C(=O)OC(C)(C)Cc1ccc(Cl)cc1 (stereo not drawn),CP286,5.012,"inhibitor, partial curve"
CC(N)C(=O)OC(C)(C)Cc1ccc(Cl)cc1 (stereo not drawn),TAB165,14.13,"inhibitor, partial curve"
CC(N)C(=O)OC(C)(C)Cc1ccc(Cl)cc1 (stereo not drawn),N140,10,"inhibitor, single point"
CC(N)C(=O)OC(C)(C)Cc1ccc(Cl)cc1 (stereo not drawn),DFO2036,8.912,"inhibitor, single point"
CC(N)C(=O)OC(C)(C)Cc1ccc(Cl)cc1 (stereo not drawn),CP305,9.528,"inhibitor, partial curve"
CC(N)C(=O)OC(C)(C)Cc1ccc(Cl)cc1 (stereo not drawn),CP185,8.912,"inhibitor, partial curve"
C[C@]12CC[C@H](O)C[C@H]1CCC1C2CC[C@]2(C)[C@@H](c3ccc(=O)oc3)C[C@H]3O[C@]132 (stereo partly drawn),W2,13.46,"inhibitor, single point"
C[C@]12CC[C@H](O)C[C@H]1CCC1C2CC[C@]2(C)[C@@H](c3ccc(=O)oc3)C[C@H]3O[C@]132 (stereo partly drawn),DIV17,16.94,"inhibitor, single point"
C[C@]12CC[C@H](O)C[C@H]1CCC1C2CC[C@]2(C)[C@@H](c3ccc(=O)oc3)C[C@H]3O[C@]132 (stereo partly drawn),SC27B,7.943,"inhibitor, partial curve"
C[C@]12CC[C@H](O)C[C@H]1CCC1C2CC[C@]2(C)[C@@H](c3ccc(=O)oc3)C[C@H]3O[C@]132 (stereo partly drawn),DIV30,19.01,"inhibitor, single point"
C[C@]12CC[C@H](O)C[C@H]1CCC1C2CC[C@]2(C)[C@@H](c3ccc(=O)oc3)C[C@H]3O[C@]132 (stereo partly drawn),HB3,3.981,"inhibitor, partial curve"
C[C@]12CC[C@H](O)C[C@H]1CCC1C2CC[C@]2(C)[C@@H](c3ccc(=O)oc3)C[C@H]3O[C@]132 (stereo partly drawn),TAB165,17.78,"inhibitor, single point"
C[C@]12CC[C@H](O)C[C@H]1CCC1C2CC[C@]2(C)[C@@H](c3ccc(=O)oc3)C[C@H]3O[C@]132 (stereo partly drawn),CP203,21.33,"inhibitor, partial curve, poor fit"
C[C@]12CC[C@H](O)C[C@H]1CCC1C2CC[C@]2(C)[C@@H](c3ccc(=O)oc3)C[C@H]3O[C@]132 (stereo partly drawn),P93_24,10,"inhibitor, single point"
C[C@]12CC[C@H](O)C[C@H]1CCC1C2CC[C@]2(C)[C@@H](c3ccc(=O)oc3)C[C@H]3O[C@]132 (stereo partly drawn),AS120,14.13,"inhibitor, single point"
C[C@]12CC[C@H](O)C[C@H]1CCC1C2CC[C@]2(C)[C@@H](c3ccc(=O)oc3)C[C@H]3O[C@]132 (stereo partly drawn),PAD,11.22,"inhibitor, single point"
C[C@]12CC[C@H](O)C[C@H]1CCC1C2CC[C@]2(C)[C@@H](c3ccc(=O)oc3)C[C@H]3O[C@]132 (stereo partly drawn),CP237,11.22,"inhibitor, single point"
C[C@]12CC[C@H](O)C[C@H]1CCC1C2CC[C@]2(C)[C@@H](c3ccc(=O)oc3)C[C@H]3O[C@]132 (stereo partly drawn),PC26,2.393,"inhibitor, partial curve"
C[C@]12CC[C@H](O)C[C@H]1CCC1C2CC[C@]2(C)[C@@H](c3ccc(=O)oc3)C[C@H]3O[C@]132 (stereo partly drawn),N140,17.78,"inhibitor, single point"
C[C@]12CC[C@H](O)C[C@H]1CCC1C2CC[C@]2(C)[C@@H](c3ccc(=O)oc3)C[C@H]3O[C@]132 (stereo partly drawn),PC15,5.012,"inhibitor, partial curve"
OCC(O)C(O)C(O)C(O)CO (stereo not drawn),parasite line B,3.162,"inhibitor, single point"
OCC(O)C(O)C(O)C(O)CO (stereo not drawn),PC49,0.0282,"activator, full curve, poor fit"
Cc1noc(NS(=O)(=O)c2ccc(N)cc2)c1C,CP266,0.3381,"inhibitor, partial curve, poor fit"
Cc1noc(NS(=O)(=O)c2ccc(N)cc2)c1C,CP315,0.0135,"inhibitor, full curve, poor fit"
Cc1noc(NS(=O)(=O)c2ccc(N)cc2)c1C,W2,21.33,"inhibitor, partial curve, poor fit"
Cc1noc(NS(=O)(=O)c2ccc(N)cc2)c1C,CP268,0.0013,inhibitor
Cc1cc2nc3c(=O)[nH]c(=O)nc-3n(CC(O)C(O)C(O)CO)c2cc1C (stereo not drawn),CP247,12.59,"inhibitor, partial curve"
Cc1cc2nc3c(=O)[nH]c(=O)nc-3n(CC(O)C(O)C(O)CO)c2cc1C (stereo not drawn),DIV17,12,"inhibitor, single point"
Cc1cc2nc3c(=O)[nH]c(=O)nc-3n(CC(O)C(O)C(O)CO)c2cc1C (stereo not drawn),GB4,12,"inhibitor, partial curve, poor fit"
Cc1cc2nc3c(=O)[nH]c(=O)nc-3n(CC(O)C(O)C(O)CO)c2cc1C (stereo not drawn),DIV14,2.393,"inhibitor, partial curve"
Cc1cc2nc3c(=O)[nH]c(=O)nc-3n(CC(O)C(O)C(O)CO)c2cc1C (stereo not drawn),CP191,3.548,"inhibitor, full curve"
Cc1cc2nc3c(=O)[nH]c(=O)nc-3n(CC(O)C(O)C(O)CO)c2cc1C (stereo not drawn),W2,5.358,"inhibitor, partial curve"
O=P(O)(O)OC[C@H]1O[C@](O)(COP(=O)(O)O)[C@@H](O)[C@@H]1O,CP297,16.94,"inhibitor, partial curve, poor fit"
O=P(O)(O)OC[C@H]1O[C@](O)(COP(=O)(O)O)[C@@H](O)[C@@H]1O,CP194,0.0038,activator
CN1CCC[C@@H]1CCO[C@](C)(c1ccccc1)c1ccc(Cl)cc1,CP247,5.012,"inhibitor, partial curve"

The first 2 entries again:

{"compound": "C[C@H](N)C(=O)N[C@@H](C)P(=O)(O)O", "tested on / at": "TAB109", "fitted potency (µM)": "3.981", "remark": "inhibitor, single point"}
{"compound": "C[C@H](N)C(=O)N[C@@H](C)P(=O)(O)O", "tested on / at": "CP260", "fitted potency (µM)": "17.78", "remark": "inhibitor, single point"}